Data source: PubChem BioAssay AID1259405 (NCATS, 2018)

- Assay: 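Knock-downs that lift recombinant protein yield in hamster ovary cells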 (primary screen)
- Cells: Chinese hamster CHO-K1 ovary cells with stable secreted eGFP expression
- Reagent: single siRNA against mouse genes, 0.8 pmol siRNA per well (2 µl of 400 nM stock)
- Timing: 3 days
- Detection: 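Per-well intracellular GFP measured by laser scanning cytometry, plus viability from ATP luminescence, each relative to plate median of non-targeting control wells, in %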
- Scale: GFP, % of control: higher = more GFP per well, higher productivity; viability (ATP), % of control: higher = more viable cells (more ATP)
- Active means: 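Called active when intracellular GFP, relative to negative control, is at or above 120%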
This is an unselected part of about 50,000 reagents. Over the whole deposit, about 4,000 (8%) are marked active. 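Mouse siRNA library applied to hamster cells; one well for each siRNA.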 A number with no mark means an inactive call. Reagent sequences are not shown.

Timm8a1 (translocase of inner mitochondrial membrane 8A1) [SID363575184]
- GFP, % of control: 48.6
- viability (ATP), % of control: 64.9

Timm8a1 (translocase of inner mitochondrial membrane 8A1) [SID363580816]
- GFP, % of control: 79.2
- viability (ATP), % of control: 65

Timm8a1 (translocase of inner mitochondrial membrane 8A1) [SID363582928]
- GFP, % of control: 64.6
- viability (ATP), % of control: 82.4

Gca (grancalcin) [SID363582663]
- GFP, % of control: 54.1
- viability (ATP), % of control: 82.2

Gca (grancalcin) [SID363584423]
- GFP, % of control: 81
- viability (ATP), % of control: 72.8

Mab21l2 (mab-21-like 2) [SID363562278]
- GFP, % of control: 76.9
- viability (ATP), % of control: 76.7

Mab21l2 (mab-21-like 2) [SID363567416]
- GFP, % of control: 59.6
- viability (ATP), % of control: 23.8

Mab21l2 (mab-21-like 2) [SID363584773]
- GFP, % of control: 65.3
- viability (ATP), % of control: 67.4

Akr1c13 (aldo-keto reductase family 1, member C13) [SID363547846]
- GFP, % of control: 35.5
- viability (ATP), % of control: 42.5

Akr1c13 (aldo-keto reductase family 1, member C13) [SID363558615]
- GFP, % of control: 70.4
- viability (ATP), % of control: 63.6

Akr1c13 (aldo-keto reductase family 1, member C13) [SID363560373]
- GFP, % of control: 80
- viability (ATP), % of control: 94.2

Fam151a (family with sequence simliarity 151, member A) [SID363547052]
- GFP, % of control: 86.7
- viability (ATP), % of control: 81.6

Fam151a (family with sequence simliarity 151, member A) [SID363549864]
- GFP, % of control: 104
- viability (ATP), % of control: 70.8

Fam151a (family with sequence simliarity 151, member A) [SID363587918]
- GFP, % of control: 165 (active)
- viability (ATP), % of control: 150

Ubqln1 (ubiquilin 1) [SID363556780]
- GFP, % of control: 54.4
- viability (ATP), % of control: 47.7

Ubqln1 (ubiquilin 1) [SID363563684]
- GFP, % of control: 91.6
- viability (ATP), % of control: 55.2

Ubqln1 (ubiquilin 1) [SID363587230]
- GFP, % of control: 81.6
- viability (ATP), % of control: 103

Copb2 (COPI coat complex subunit beta 2) [SID363547563]
- GFP, % of control: 61.3
- viability (ATP), % of control: 39.2

Copb2 (COPI coat complex subunit beta 2) [SID363558332]
- GFP, % of control: 36.9
- viability (ATP), % of control: 11

Copb2 (COPI coat complex subunit beta 2) [SID363560090]
- GFP, % of control: 97.4
- viability (ATP), % of control: 76.3

Dlgap1 (DLG associated protein 1) [SID363544210]
- GFP, % of control: 46.4
- viability (ATP), % of control: 32

Dlgap1 (DLG associated protein 1) [SID363550538]
- GFP, % of control: 60.6
- viability (ATP), % of control: 72.4

Dlgap1 (DLG associated protein 1) [SID363557087]
- GFP, % of control: 43
- viability (ATP), % of control: 35.9

Setbp1 (SET binding protein 1) [SID363569220]
- GFP, % of control: 99
- viability (ATP), % of control: 88.5

Setbp1 (SET binding protein 1) [SID363583652]
- GFP, % of control: 103
- viability (ATP), % of control: 95.7

Rfpl4 (ret finger protein-like 4) [SID363541901]
- GFP, % of control: 80.4
- viability (ATP), % of control: 69.3

Rfpl4 (ret finger protein-like 4) [SID363553493]
- GFP, % of control: 61.6
- viability (ATP), % of control: 56.5

Rfpl4 (ret finger protein-like 4) [SID363566817]
- GFP, % of control: 69.6
- viability (ATP), % of control: 90.5

Entries listed so far whose gene name starts with C or c:
Copb2 (COPI coat complex subunit beta 2) [SID363547563]
- GFP, % of control: 61.3
- viability (ATP), % of control: 39.2

Copb2 (COPI coat complex subunit beta 2) [SID363558332]
- GFP, % of control: 36.9
- viability (ATP), % of control: 11

Copb2 (COPI coat complex subunit beta 2) [SID363560090]
- GFP, % of control: 97.4
- viability (ATP), % of control: 76.3
